# PubChem BioAssay (Tox21)
# Values joined by “and” are separate entries in the source; they are usually repeats but may differ in a detail not shown here. Equal entries are not always repeated. All entries are inconclusive by the source's own rule. Clear calls are listed elsewhere. Calls follow the shape of the full dose curve.
# Test: cAMP Responsive Elements (CRE) small molecule agonists, cell-based qHTS assay (AID 1963590)
# Conditions: CRE-bla HEK293T, beta-lactamase FRET ratio, 3 h
# Source text: U.S. Tox21 Program National Center for Advancing Translational Sciences [NCATS] Division of Preclinical Innovation [DPI] U.S. Environmental Protection Agency [EPA] National Institutes of Environmental Health Sciences [NIEHS] National Toxicology Program [NTP] U.S. Food and Drug Administration [FDA] Tox21 Assay Overview: CREB (cyclic-AMP Responsive Element Binding Protein) is a cellular transcription factor. It binds to certain DNA sequences called cAMP Responsive Elements (CRE) and regulates the transcription of the genes. […] This cell line can be used to find agonists/antagonists of the cyclic AMP signaling pathway. The activation of the report gene under culture conditions can be detected by fluorescence intensity. This cell line has been used to screen the Tox21 10K compound library to identify agonists that induce oxidative stress.
# Tox21 Assay Protocol Summary: CRE-bla Hek 293T cells were suspended in assay medium (DMEM containing 10% dialyzed FBS, 0.1 mM NEAA, 1 mM sodium pyruvate and 25 mM HEPES) and dispensed at 2,000 cells/5 uL /well into 1536-well black wall/clear bottom plates using a Multidrop Combi (ThermoFisher Scientific, Waltham, MA) dispenser. After the assay plates were incubated at 37 C/5% CO2 for 18 hrs, 23 nL of compounds dissolved in DMSO, positive controls or DMSO only was transferred to the assay plate by a pintool workstation (Kalypsys, San Diego, CA). After the plates were incubated at 37 C/5% CO2 for 3 hrs, 1 uL of LiveBLAzer B/G FRET substrate (Invitrogen, Carlsbad, CA) was added to each well using Bioraptr Flying Reagent Dispenser (FRD, Aurora Discovery, San Diego, CA). The plates were incubated at room temperature for 2 h.
# Potency is read from the fitted curve at half-maximal effect.
row,Compound,Potency
1,CC(C)OP(=S)(OC(C)C)SCCNS(=O)(=O)c1ccccc1,inconclusive: 61.1 µM
2,Nc1cc([N+](=O)[O-])cc([N+](=O)[O-])c1O,inconclusive: 55.7 µM
3,Cc1cc([N+](=O)[O-])c(O)c([N+](=O)[O-])c1,inconclusive: 27.6 µM
4,CCC(=O)N(c1ccccc1)C1(COC)CCN(CCc2cccs2)CC1,inconclusive: 61.1 µM
5,Cc1ccc([N+](=O)[O-])c([N+](=O)[O-])c1,inconclusive: 49.5 µM
6,N#CSc1ccc([N+](=O)[O-])cc1[N+](=O)[O-],inconclusive: 61.1 µM
7,Cc1cc([N+](=O)[O-])cc([N+](=O)[O-])c1O,inconclusive: 24.3 µM and inconclusive: 21.7 µM
8,O=[N+]([O-])c1ccc(S(=O)(=O)O)c([N+](=O)[O-])c1,inconclusive: 4.35 µM
